Literature values as cited in EP1131337B1 (DABUR PHARMA LTD., priority 1998, dated 2000).
For at least one compound, name, drawing or mass did not settle the structure.

Legend:
Conditions in all cases: US Patent 5,869,535; cited from earlier work
LNCaP (prostate) = test system: LNCaP (prostate)
LU-1 (lung) = test system: LU-1 (lung)
ZR-75-1 (breast) = test system: ZR-75-1 (breast)
[1] = test system: KB (human oral epidermoid carcinoma)
U373 (glima) = test system: U373 (glima)
BC-1 (breast) = test system: BC-1 (breast)
HT1080 (sarcoma) = test system: HT1080 (sarcoma)
A431 (squamous cells) = test system: A431 (squamous cells)
MEL-2 cells = test system: MEL-2 cells
COL-2 (colon) = test system: COL-2 (colon)

C=C(C)[C@@H]1CC[C@]2(C(=O)O)CC[C@]3(C)[C@H](CC[C@@H]4[C@@]5(C)CC[C@H](O)C(C)(C)[C@@H]5CC[C@]43C)[C@@H]12 [betulinic acid]
ED50 (LNCaP (prostate)): greater than 20 µg/ml | ED50 (LU-1 (lung)): greater than 20 µg/ml | ED50 (ZR-75-1 (breast)): greater than 20 µg/ml | ED50 [1]: greater than 20 µg/ml | ED50 (U373 (glima)): greater than 20 µg/ml | ED50 (BC-1 (breast)): greater than 20 µg/ml | ED50 (HT1080 (sarcoma)): greater than 20 µg/ml | ED50 (A431 (squamous cells)): greater than 20 µg/ml | in vitro growth of MEL-2 cells (MEL-2 cells): inhibit | ED50 (COL-2 (colon)): greater than 20 µg/ml
